# The other results are listed elsewhere or left out. The main result of the screen is listed elsewhere. These columns were measured beside it and carry no call. The list favours compounds with an active or inconclusive main result. Words in brackets tell the shape of the fitted curve; partial curves, single points and poor fits give uncertain potencies.
# Experiment: Cell signaling CRE-BLA (Fsk stim)
# Conditions: CHO CRE-bla reporter (cAMP response element driving beta-lactamase), forskolin EC10, beta-lactamase ratio; measured here: 460 nm blue channel
# Method in brief: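 Cells were plated overnight at 37 °C, exposed to compound titrations plus EC10 NKH 477 for 3 h, then given CCF4 dye for 2 h at room temperature. Blue/green (460/530 nm) ratio was converted to %Activity and AC50 values calculated.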
row,Structure (SMILES),AC50
1,COc1cc(C(=O)Nc2oc(-c3ccccc3)c(-c3ccccc3)c2C#N)cc(OC)c1OC,"1.26 µM [rising, full curve]"
2,OCCN1CCN(c2nc(N3CCCCC3)nc(N3CCCCC3)n2)CC1,"0.00316 µM [falling, full curve, poor fit]"
3,O=C(CSc1nnnn1-c1ccc(Cl)cc1)NC(=O)Nc1ccc2c(c1)OCCO2,"3.16 µM [rising, single point]"
4,CCC1CCCCN1S(=O)(=O)c1ccc2c(c1)CCN2C(=O)C1CCC1 (stereo not drawn),"12.6 µM [rising, single point]"
5,N#CC1=C(N)C(C#N)(C#N)C2(CCC3(CC2)OCCO3)C2CC3(CC=C12)OCCO3 (stereo not drawn),"25.1 µM [rising, single point]"
6,COC(=O)c1c(NC(=O)CC2NCCNC2=O)sc2c1CCCC2 (stereo not drawn),"12.6 µM [rising, single point]"
7,COc1ccc(C2C(C(=O)OC3CCCCC3)=C(C)Nc3nnnn32)c(OC)c1OC (stereo not drawn),"25.1 µM [falling, single point]"
8,CC1(C)Cc2cccc(OCC(=O)Nc3ccccc3N3CCOCC3)c2O1,"5.01 µM [falling, single point]"
9,CCOC(=O)C1CCCN(Cc2ccc(O)c(OC)c2)C1 (stereo not drawn),"0.00398 µM [falling, full curve, poor fit]"
10,COc1ccc(Oc2ncc3nc(-c4cccs4)c(=O)n(Cc4cccs4)c3n2)cc1,"3.98 µM [rising, full curve]"
11,CN(C)CCCN1C(=O)C(=O)/C(=C(/O)c2ccc3c(c2)OCCO3)C1c1ccccn1 (stereo not drawn),"25.1 µM [falling, single point]"
12,COc1ccc(-c2cn3cccnc3n2)cc1NC(=O)CC(C)C,"0.1 µM [falling, full curve]"
13,COc1ccccc1Cn1c(=O)c2ccccc2n2c(SCc3csc(C)n3)nnc12,"5.01 µM [rising, full curve, poor fit]"
14,COc1ccc(-c2nnc3sc(-c4ccc(Br)o4)nn23)cc1OC,"2.51 µM [rising, single point]"
15,CCN(CC)S(=O)(=O)c1ccc(Nc2nc3ccccc3n3nnnc23)cc1,"10 µM [rising, partial curve]"
16,CCCCSc1nc2c(c(=O)[nH]c(=O)n2C)n1CCc1ccccc1,"10 µM [rising, partial curve]"
17,COc1ccc(-c2nnc(SCC(=O)c3cccs3)o2)c(OC)c1,"10 µM [rising, partial curve]"
18,CCCCCC1=C2CNC(Cc3ccccc3)(C(=O)OC)C=C2C(C)C1=O (stereo not drawn),"25.1 µM [rising, single point]"
19,CCC(C)n1[nH]c(=O)cc1N (stereo not drawn),"0.00316 µM [falling, full curve, poor fit]"
20,O=C(NCCCNCc1ccccc1)c1ccc(/C=N/O)nc1,"0.00316 µM [falling, full curve, poor fit]"
21,COc1ccc(OC)c(C2=Nn3c(nnc3-c3cc(OC)c(OC)c(OC)c3)SC2)c1,"3.98 µM [falling, partial curve]"
22,Cc1ccc(S(=O)(=O)NC(C)C(=O)NC2CCCCCC2)cc1 (stereo not drawn),"3.16 µM [falling, partial curve, poor fit]"

row,Structure (SMILES),AC50
1,COCCCNC(=O)CCn1c(=O)c2ccccc2n(CC(=O)Nc2cc(Cl)ccc2C)c1=O,"0.398 µM [falling, partial curve]"
2,Cc1c(NC(=O)c2cc(-n3cnnc3)ccc2Cl)cccc1-c1nc2ccccc2o1,"0.794 µM [falling, full curve]"
3,Cc1ccc(C(=O)CSc2n[nH]c(C)n2)cc1,"1 µM [rising, single point]"
4,COC(=O)c1ccccc1NC(=O)NCc1ccc2c(c1)OCO2,"10 µM [rising, single point]"
5,CCOc1ccc(-n2c(=O)c3sccc3n(CC(=O)NCc3ccco3)c2=O)cc1,"0.0794 µM [falling, full curve]"
6,COc1ccccc1NC(=O)CSc1nc2ccccc2c(=O)n1CCNC(C)=O,"15.8 µM [rising, partial curve]"
7,CC1(C)CC(=O)c2c(noc2-c2ccccc2)C1,"25.1 µM [rising, single point]"
8,COc1ccc(-c2nc3cnc(N4CCNCC4)nc3n(CCc3ccccc3)c2=O)cc1,"1.26 µM [rising, full curve]"
9,OC[C@@H]1O[C@@H](n2cnc3cncnc32)[C@@H](O)[C@H]1O,"15.8 µM [falling, partial curve]"
10,CCOc1cc(CNc2ccccc2SC)ccc1O,"0.00794 µM [falling, full curve]"
11,CC(=O)c1c(C)[nH]c(C(=O)CSc2nnc(CN3CCCCCC3=O)n2-c2ccccn2)c1C,"5.01 µM [falling, single point]"
12,Cc1nc(N2CCCC2)c2nnn(Cc3ccccc3Cl)c2n1,"2.51 µM [rising, full curve]"
13,c1ccc(Nc2ncnc3ccc(-c4ccc5c(c4)OCO5)cc23)cc1,"10 µM [rising, partial curve]"
14,CC(C(=O)OCc1nnc(-c2ccccc2)o1)N1C(=O)c2ccccc2C1=O (stereo not drawn),"0.0316 µM [falling, full curve, poor fit]"
15,O=C(CSc1nc2c(cnn2-c2ccc(F)cc2)c(=O)[nH]1)N1CCCCCC1,"5.01 µM [rising, full curve, poor fit]"
16,COc1ccc(N2CCN(CC(=O)Nc3c(C)cc(C)cc3C)CC2)cc1,"20 µM [falling, single point]"
17,c1ccc(CNc2ncnc3c2cnn3-c2ccccc2)cc1,"12.6 µM [rising, single point]"
18,CC(=O)CSc1nc2ccc(Nc3nc(N4CCOCC4)nc(N4CCOCC4)n3)cc2s1,"12.6 µM [rising, partial curve]"
19,Nc1nc(SCC(=O)NCc2ccccc2)n[nH]1,"3.98 µM [falling, partial curve]"
20,COc1cc(NC(=O)Cn2ncc3c2-c2ccccc2OC3)cc(OC)c1OC,"10 µM [rising, partial curve]"
21,CC(=O)NCCNc1nc(-c2cccnc2)nc2ccccc12,"5.01 µM [rising, partial curve]"

# Part of the list above, with bars between the fields:
row | Structure (SMILES) | AC50
8 | COc1ccc(-c2nc3cnc(N4CCNCC4)nc3n(CCc3ccccc3)c2=O)cc1 | 1.26 µM [rising, full curve]
9 | OC[C@@H]1O[C@@H](n2cnc3cncnc32)[C@@H](O)[C@H]1O | 15.8 µM [falling, partial curve]

# From PubChem BioAssay AID662 (National Center for Advancing Translational Sciences (NCATS), 2007)
